PubChem BioAssay AID2685 (National Center for Advancing Translational Sciences (NCATS), 2010)
The list shows a part of the results. These are further read-outs of the screen, such as a control signal, another cell line or another target. No call is given for them. Most of these compounds were active or inconclusive in the main read-out, so they are no random draw. Words in brackets tell the shape of the fitted curve; partial curves, single points and poor fits give uncertain potencies.

Experiment: qHTS Assay for Lipid Storage Modulators in Drosophila S3 Cells;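 for cell number change: cells counted by Cell Tracker Red CMTPX staining in the red channel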
Settings: BODIPY lipid droplet fluorescence, 18-24 h; for cell number change: measured here: cell count max response, cells fed with added oleic acid
How it was run: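 Laser-scanning cytometry quantifies lipid droplet accumulation (500–530 nm total intensity; droplet/cell object ratio) in oleic acid-fed (400 uM added) Drosophila S3 cells treated with a concentration series. 20 uM Triacsin C defined 100% inhibition.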

[1] = measured here: lipid fluorescence (Fed channel) AC50, cells fed with added oleic acid
[2] = measured here: cell number channel AC50, cells fed with added oleic acid

SMILES | cell number change [%] | AC50 [1] | AC50 [2]
O=c1c2ccccc2cnn1Cc1n[nH]c(=S)n1-c1ccc(F)cc1 | 1.42 | 6.51 µM [falling, single point] | 
CCCCN(C)CCNC(=O)CN1C(=O)CSc2ccc(S(=O)(=O)N3CCCCC3)cc21 | 2.47 |  | 0.326 µM [rising, partial curve, poor fit]
COc1ccc2c3c([nH]c2c1)C1CC2C(CC(O)C(OC)C2CO)CN1CC3 (configuration not stated) | -5.91 |  | 
CC(Oc1ccc(F)cc1)C(=O)Nc1nc(-c2ccccn2)cs1 (configuration not stated) | 8.88 | 6.51 µM [rising, single point] | 6.51 µM [rising, single point]
Cc1cc(C)c(C(=O)CN2C(=O)C(=O)N(C3CCCC3)C2=O)cc1C | 42.3 | 16.4 µM [rising, partial curve] | 16.4 µM [rising, single point]
COc1cccc(C(=O)NCC2(c3ccc(OC)c(OC)c3)CCCC2)c1 | -15.9 |  | 
O=c1ncn(-c2ccc(F)cc2)c2ncccc12 | -49.6 | 29.1 µM [falling, single point] | 0.116 µM [falling, full curve, poor fit]
Nc1ccc2oc(-c3ccccc3Cl)cc(=O)c2c1O | 0.968 | 0.82 µM [rising, full curve] | 
Cc1cc(C)c(S(=O)(=O)NCCC2CCCN2C)c(C)c1 (configuration not stated) | -27.2 | 4.11 µM [falling, full curve] | 4.11 µM [falling, full curve, poor fit]
CCCOc1ccc(-c2cnc(SCC(N)=O)nc2N)cc1 | 32.3 |  | 2.91 µM [rising, single point]
COC(=O)c1cn(CC(=O)Nc2ccc(OC)cc2)c2ccccc12 | -0.88 |  | 
CN(C)CCC#CC(O)(c1ccccc1)c1ccccc1 | 18.7 |  | 6.51 µM [falling, single point]
CSc1ccccc1C(=O)Nc1ccc(C)cc1C |  | 9.2 µM [rising, partial curve, poor fit] | 
O=C(NCc1ccccc1Cl)C1CCN(C(=O)c2sccc2-n2cccc2)CC1 | 31.9 |  | 29.1 µM [rising, single point]
NS(=O)(=O)c1ccc(CCNc2nc(CN3CCCCC3)nc3sc4c(c23)CCC4)cc1 | -27.6 | 11.6 µM [falling, partial curve] | 
COc1ccc(-c2noc(C3CCCN(C(=O)c4ccccc4OC)C3)n2)cc1OC (configuration not stated) | -11.1 |  | 
Cc1onc(-c2ccncc2)c1C(=O)O |  | 14.6 µM [falling, partial curve] | 
CCc1nc2ccc(C(=O)N(C)CC(=O)Nc3ccc(F)c(F)c3F)cc2nc1CC | 20 |  | 
COc1cc(CCC(=O)NCc2ccc3c(c2)OCO3)cc(OC)c1OC | -13.4 | 29.1 µM [falling, single point] | 

Copied from the list:
`O=c1ncn(-c2ccc(F)cc2)c2ncccc12` | cell number change [%]: -49.6
`CCCOc1ccc(-c2cnc(SCC(N)=O)nc2N)cc1` | AC50 [2]: 2.91 µM [rising, single point]

Continuation.

SMILES | cell number change [%] | AC50 [1] | AC50 [2]
O=C(CSc1nc(-c2ccccc2)cs1)Nc1ccccc1[N+](=O)[O-] | 2.25 | 0.82 µM [rising, full curve, poor fit] | 
Oc1ccc(Br)cc1-c1nc2cnccn2c1NC1CCCC1 | -18.1 | 2.31 µM [rising, partial curve, poor fit] | 
CN(Cc1ccc(C(C)(C)C)cc1)C(=O)Cc1ccc(S(=O)(=O)N2CCOCC2)s1 | -18.2 | 32.6 µM [falling, partial curve, poor fit] | 
N=c1sccn1CC(=O)Nc1ccc(Cl)cc1[N+](=O)[O-] | 23.7 | 0.731 µM [rising, full curve, poor fit] | 
Cc1cc(-c2nnc3sc(-c4ccc(Cl)cc4Cl)nn23)n[nH]1 | -16.6 | 3.26 µM [rising, partial curve, poor fit] | 2.59 µM [rising, single point]
CCc1c(C(=O)OC)nnc2cc(C)nn12 | -48.5 |  | 23.1 µM [falling, single point]
COc1cc2c(cc1NC(=O)Nc1cccc(C)c1)oc1ccccc12 | 3.05 | 3.66 µM [rising, single point] | 
COc1cccc(NC(=O)CC(c2ccc(OC(C)C)cc2)c2ccccc2OC)c1 (configuration not stated) | -18.3 |  | 
CC(=O)N1CCN(C(=O)C(Cc2ccccc2)NC(=O)c2ccccc2)CC1 (configuration not stated) | 26 |  | 
CCCS(=O)(=O)c1nnnn1-c1cccc(OC)c1 | -165 | 9.2 µM [falling, partial curve] | 29.1 µM [falling, partial curve]
Cc1ccc(CNC(=O)CN2CCN(Cc3ccc(C)cc3)C2=O)cc1 | -15.2 | 23.1 µM [falling, single point] | 
CCOc1ccc(CCNC(=O)Cn2cccc2C(=O)c2ccccc2C)cc1OCC | -33.9 | 7.31 µM [falling, partial curve] | 3.26 µM [falling, full curve, poor fit]
O=C(O)c1ccc(C2(c3ccc(C(=O)O)cc3)OC(=O)c3ccccc32)cc1 | 18.9 | 0.00461 µM [rising, full curve, poor fit] | 
Cc1ccc(C)c(OCCn2cc(/C=C(\C#N)C(=O)NCC3CCCO3)c3ccccc32)c1 (configuration not stated) | 58.2 | 3.66 µM [falling, partial curve] | 29.1 µM [rising, single point]
O=C(CCC1CCCC1)Nc1cccn(Cc2ccccc2Br)c1=O | 10.2 | 0.82 µM [rising, full curve, poor fit] | 
C1=CC2CCC1ON2c1ccccc1 (configuration not stated) | 467 | 2.59 µM [falling, partial curve, poor fit] | 23.1 µM [rising, single point]
CCOC(=O)N1CCN(S(=O)(=O)N2CCCC(C(=O)NCCc3ccc(C)cc3)C2)CC1 (configuration not stated) | -11.9 | 0.00461 µM [rising, full curve, poor fit] | 
COc1ccc(C(=O)OCCc2cc3ccccc3c(=O)o2)cc1 | -1.94 | 0.13 µM [rising, single point] | 
COc1ccc2[nH]c3nc(SCc4nnc(-c5ccc(C)cc5)o4)nnc3c2c1 | -2.73 | 2.59 µM [rising, full curve] | 1.03 µM [rising, partial curve, poor fit]
